Assay results as given in US6716858B1, “Methods for inhibiting diabetic complications” (Kansas University Medical Center, priority 1995, dated 2004).

Key:
[1] = system: streptozotocin-induced diabetic rat; assay: STZ diabetic rat model, AGEs and crosslinking of collagen; type: in vivo; settings: diabetic rats, 1 g/L in drinking water
Description: Animal studies. Diabetes was induced by a single tail vein injection of 45 mg/kg of STZ in 0.1 M sodium citrate buffer, pH 4.5. Control animals were sham injected with buffer only. Diabetes was confirmed by measuring blood glucose levels at 2 and 3 days after the STZ-injection. Animals with plasma glucose higher than 16 mM were classified as diabetic. The diabetic rats were divided randomly into an untreated diabetic group (n=12) and two diabetic treatment groups, receiving either PM (n=13) or AG (n=12) at 1 g/L in drinking water. Two non-diabetic control groups were included, one receiving no treatment (n=13), the other receiving PM(HCl)2 at 2 g/L in drinking water (n=12); the higher dose of PM in the PM-treated control group was designed to compensate, in part, for the lower water intake of non-diabetic, compared to diabetic animals. […]
Glycemic control. Glycemia was monitored by measurement of plasma glucose and glycated hemoglobin every four weeks, using a Sigma Trinder assay Kit (Sigma # 315). […] The plate was shaken for 18 min and the absorbance at 490 nm was measured in a Wallac Victor 1420 multilabel counter (Wallac Inc. Gaithersburg, Md.). Glycated hemoglobin (GlcHb) was measured on whole blood by boronate affinity chromatography using a Sigma kit for total glycated hemoglobin (Sigma # 442-B). […]

[2] = system: Sprague-Dawley rats, glomerular changes; type: in vivo, rat; settings: 6 weeks; n = 4; average with standard error
Description: Male Sprague-Dawley rats (Sasco, 100 g) were used. After a 1 week adaptation period, rats were placed in metabolic cages to obtain a 24 hour urine specimen for 2 days before administration of injections. Rats were then divided into experimental and control groups and given tail vein injections with either saline, unmodified RSA (50 mg/kg), Amadori-RSA (50 mg/kg), NaBH4-reduced Amadori-RSA (50 mg/kg), or AGE-RSA (50 mg/kg).
Rats injected with Amadori-RSA and AGE-RSA were then either left untreated, or further treated by the administration of either aminoguanidine (AG; 25 mg/kg), pyridoxamine (PM; 25 mg/kg), or a combination of AG and PM (10 mg/kg each) through the drinking water. Body weight and water intake of the rats were monitored weekly in order to adjust dosages. At the conclusion of the experimental study the rats were placed in metabolic cages to obtain 24 hour urine specimen for 2 days prior to sacrificing the animals.
After perfusion with saline, kidney sections were fixed in ice-cold 10% neutral buffered formalin. Paraffin-embedded tissue sections from all rat groups (n=4 per group) were processed for staining with Harris' alum hematoxylin and eosin (H&E), perodic acid/Schiff reagent (PAS), and alcian blue (pH 1.0 and pH 2.5) stains for histological examination. The alcian blue sections were scored by two investigators in a blinded fashion.
Parrafin-embedded sections were deparaffinized and then blocked with 10% goat serum in PBS for 30 min at room temperature. […] The sections were then rinsed for 30 min with PBS in the dark, mounted in aqueous mounting media for immunocytochemistry (Biomeda), and cover slipped. Sections were scored in a blinded fashion. Kidney sections were evaluated by the number and intensity of glomerular staining in 5 regions around the periphery of the kidney. Scores were normalized for the immunofluorescent score per 100 glomeruli with a scoring system of 0-3.
All animals studies were carried out in conformance with institutional guidelines for animal research protocols. Male Sprague-Dawley 100 g rats (Sasco Co., Omaha Nebr.) were used in these studies. After a 1 week adaptation period, rats were placed in metabolic cages for 2 days to get two 24 hour urine specimens before starting treatment. Rats were then given daily single tail vein injections for 6 weeks according to the following treatment groups: saline, unmodified RSA (50 mg/kg), Amadori-RSA (50 mg/kg), NaBH4-reduced Amadori-RSA (50 mg/kg), and AGE-RSA (50 mg/kg). Groups of rats injected with Amadori-RSA or AGE-RSA were also administered aminoguanidine (25 mg/kg/day), pyridoxamine (25 mg/kg/day), a combination of the two (10 mg/kg/day each), or with nothing added to the drinking water. Body weight and water intake of the rat were monitored weekly in order to adjust dosages. At the conclusion of the study, the rats were placed in metabolic cages for two days to get two 24 hour urine specimens before sacrificing the animals.
Total protein in urine was determined by Bio-Rad assay. Albumin in urine was determined by competitive ELISA using rabbit anti-rat serum albumin (Cappell) as primary antibody (1:2000) and goat anti-rabbit IgG (Sigma) as a secondary antibody (1:2000). Urine was tested with Multistix 8 SG (Miles) for glucose, ketone, specific gravity, blood, pH, protein, nitrite and leukocytes. Creatinine measurements were performed with a Beckman creatinine analyzer II. Intracardiac blood samples were collected before termination and were used in the determination of creatinine clearance, blood glucose (glucose oxidase, Sigma), fructosamine (nitroblue tetrazolium, Sigma), and glycated Hb (Glycotest II analytical boronate columns, Pierce).
After perfusion with saline, kidney sections were fixed in ice-cold 10% neutral buffered formalin. […]

Compound: N=C(N)NN [aminoguanidine, reference compound]
- glycemic control (mean plasma glucose, GlcHb) [1]: Neither PM nor AG had an effect on glycemic control in diabetic animals

Compound: Cc1ncc(CO)c(CN)c1O [pyridoxamine]
- Blood Glc [2]: 107 ± 8 g/dL
- Body Wt [2]: 340 ± 30 g
- Fructosamine [2]: 1.06 ± 0.07 mmol/L
- glycemic control (mean plasma glucose, GlcHb) [1]: Neither PM nor AG had an effect on glycemic control in diabetic animals

Compound: AGE-RSA: Amadori-RSA re-incubated in the absence of sugar for 2-3 days at 37° C.
- Blood Glc [2]: 112 ± 7 g/dL
- Body Wt [2]: 323 ± 38 g
- Fructosamine [2]: 1.28 ± 0.18 mmol/L

Compound: Amadori-RSA: rat serum albumin incubated with 0.5 M ribose for 12 hours, then dialyzed; negative for antigenic AGEs
- Blood Glc [2]: 96 ± 10 g/dL
- Body Wt [2]: 362 ± 15 g
- Fructosamine [2]: 1.40 ± 0.31 mmol/L

Compound: NaBH4-reduced: Amadori-RSA reduced with NaBH4
- Blood Glc [2]: 108 ± 13 g/dL
- Body Wt [2]: 363 ± 35 g
- Fructosamine [2]: 1.47 ± 0.18 mmol/L

Compound: RSA: purified rat serum albumin, unmodified
- Blood Glc [2]: 104 ± 15 g/dL
- Body Wt [2]: 358 ± 35 g
- Fructosamine [2]: 1.16 ± 0.12 mmol/L
